Measurements as given in article PMC7847638.
No constants are given. Whether binding was seen depends on the method and setting. Binding seen in cells or lysates may run through a third protein. Some binding calls cover weakened binding; strength is not graded here. Where a sequence is shown, tags or fusion partners need not be part of it.

Target: T1, Nr2f2 (nuclear receptor subfamily 2, group F, member 2), HA-tagged (UniProt P24468)
T1 sequence: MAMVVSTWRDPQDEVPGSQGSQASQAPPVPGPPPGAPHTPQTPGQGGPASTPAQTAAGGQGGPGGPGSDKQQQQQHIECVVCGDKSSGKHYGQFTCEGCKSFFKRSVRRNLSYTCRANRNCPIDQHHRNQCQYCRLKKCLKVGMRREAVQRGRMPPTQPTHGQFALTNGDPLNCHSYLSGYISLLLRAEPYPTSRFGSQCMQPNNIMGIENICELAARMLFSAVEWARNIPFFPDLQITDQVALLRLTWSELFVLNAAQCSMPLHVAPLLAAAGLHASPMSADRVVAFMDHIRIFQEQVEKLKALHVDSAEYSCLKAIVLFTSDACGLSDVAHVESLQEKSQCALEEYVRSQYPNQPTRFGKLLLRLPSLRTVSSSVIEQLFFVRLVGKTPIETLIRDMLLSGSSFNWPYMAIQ
Test: co-IP; reciprocal co-IP of Flag-Fbxo21 and HA-Nr2f2 transfected into MGC-803 cells; RIPA lysates, 1 ug primary antibody overnight at 4 C, protein A+G beads 1 h, washed three times with PBS, western blot

B1: F-box protein 21 (Fbxo21), Flag-tagged (protein, UniProt O94952 1-628)
chain: MAAAAVDSAMEVVPALAEEAAPEVAGLSCLVNLPGEVLEYILCCGSLTAADIGRVSSTCRRLRELCQSSGKVWKEQFRVRWPSLMKHYSPTDYVNWLEEYKVRQKAGLEARKIVASFSKRFFSEHVPCNGFSDIENLEGPEIFFEDELVCILNMEGRKALTWKYYAKKILYYLRQQKILNNLKAFLQQPDDYESYLEGAVYIDQYCNPLSDISLKDIQAQIDSIVELVCKTLRGINSRHPSLAFKAGESSMIMEIELQSQVLDAMNYVLYDQLKFKGNRMDYYNALNLYMHQVLIRRTGIPISMSLLYLTIARQLGVPLEPVNFPSHFLLRWCQGAEGATLDIFDYIYIDAFGKGKQLTVKECEYLIGQHVTAALYGVVNVKKVLQRMVGNLLSLGKREGIDQSYQLLRDSLDLYLAMYPDQVQLLLLQARLYFHLGIWPEKSFCLVLKVLDILQHIQTLDPGQHGAVGYLVQHTLEHIERKKEEVGVEVKLRSDEKHRDVCYSIGLIMKHKRYGYNCVIYGWDPTCMMGHEWIRNMNVHSLPHGHHQPFYNVLVEDGSCRYAAQENLEYNVEPQEISHPDVGRYFSEFTGTHYIPNAELEIRYPEDLEFVYETVQNIYSAKKENIDE
Question: B1 was tested. Which binding did it give?
Answer: binds
